Test results from patent US7030157B2, “Pharmaceutical compositions, kits and methods comprising combinations of estrogen agonists/antagonists, estrogens and progestins” (priority 2001, dated 2006).

Assay: Body weight gain in OVX rats
Type: in vivo, Sprague-Dawley female rats
Conditions: daily gavage 28 days, EE 0.03 mg/kg, LAS 0.1 mg/kg

Row | Compound | body weight gain compared with sham and OVX controls | body weight gain compared with rats treated with EE alone
1 | C#C[C@]1(O)CC[C@H]2[C@@H]3CCc4cc(O)ccc4[C@H]3CC[C@@]21C [EE, 17α-ethanyl estradiol, reference compound] | significantly lower than sham and OVX controls | 
2 | O=C(O)C(O)C(O)C(=O)O.Oc1ccc2c(c1)CC[C@H](c1ccccc1)[C@@H]2c1ccc(OCCN2CCCC2)cc1 [LAS, (−)-cis-6-phenyl-5-[4-(2-pyrrolidin-1-yl-ethoxy)-phenyl]-5,6,7,8-tetrahydro-naphthalene-2-ol, tartrate salt] | significantly lower than sham and OVX controls | gained significantly less than those rats treated with EE alone
